# Data as given in PubChem BioAssay AID1487 (National Center for Advancing Translational Sciences (NCATS), 2009).
# Some of the results follow. These are further read-outs of the screen, such as a control signal, another cell line or another target. No call is given for them. Most of these compounds were active or inconclusive in the main read-out, so they are no random draw. The note in brackets gives the kind of curve behind each potency; many fits are weak.
# Assay: qHTS Assay for Modulators of Lamin A Splicing
# Conditions: HeLa LMNA splicing GFP/RFP minigene ratio, 48 h
# In short: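 Read-out is the ratio of GFP to DsRed2 object intensity, acquired by 488 nm laser-scanning cytometry on HeLa lamin A-EGFP minigene reporter cells. Compound incubation 48 hrs at 37 °C in Opti-MEM with 2% FBS; DMSO 0.5% final.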
# [1] = measured here: GFP splicing reporter channel
# [2] = measured here: RFP viability control channel
Compound,AC50 [1],AC50 [2]
COc1ccc2[nH]cc(CCNc3ccnc(-c4ccc(C(=O)N(C)C)cc4)n3)c2c1,"12.6 µM [falling, partial curve]","12.6 µM [falling, partial curve]"
COc1ccc(-c2n[nH]c(=S)n2C2CCCCC2)cc1,"25.1 µM [rising, single point]","35.5 µM [rising, single point]"
CC(=O)c1c(C)[nH]c(C(=O)OCC(=O)Nc2cc(S(=O)(=O)N3CCCC3)ccc2Cl)c1C,"35.5 µM [rising, single point]","15.8 µM [rising, partial curve]"
CCn1nc([N+](=O)[O-])c(C(C#N)c2nc3cc(C(F)(F)F)ccc3s2)c(Cl)c1=O (stereo not given),"14.1 µM [falling, partial curve]","35.5 µM [rising, single point]"
Cc1c(C(=O)c2no[n+]([O-])c2C(=O)c2cnn(C)c2C)cnn1C,,"15.8 µM [falling, single point]"
O=C1C=CC(=O)N1CCCCCCN1C(=O)C=CC1=O,"10 µM [falling, partial curve]","8.91 µM [rising, partial curve]"
CCOCCCn1c(SCC(=O)Nc2ccc(C(C)C)cc2)nc2c(sc3ccccc32)c1=O,"2 µM [falling, full curve]","5.62 µM [falling, partial curve, poor fit]"
C[C@]12C=CC(=O)C=C1CC[C@H]1[C@@H]3C[C@@H](O)[C@](O)(C(=O)CO)[C@@]3(C)C[C@H](O)[C@@]12F,,"0.0224 µM [falling, full curve, poor fit]"
COc1ccc(S(=O)(=O)N2CCCCCC2)cc1C(=O)OCC(=O)NC(C)(C)C,"35.5 µM [rising, single point]",
O=C(NCc1ccc(Cl)cc1Cl)c1ccc2nc[nH]c2c1,,"10 µM [rising, partial curve, poor fit]"
O=C(CCn1c(=O)[nH]c2ccsc2c1=O)N(CCc1ccccc1)Cc1ccccc1,"17.8 µM [rising, single point]",
CCN(CC)C(=O)/C(C#N)=C/c1cc(O)c(O)c([N+](=O)[O-])c1,"6.31 µM [falling, partial curve, poor fit]","0.0447 µM [falling, full curve, poor fit]"
COCCN(CCOC)C(=S)Nc1ccccc1Cl,,"0.501 µM [rising, full curve]"
Fc1ccc(Nc2nc(N3CCOCC3)c3ccccc3n2)cc1,"31.6 µM [rising, partial curve]","25.1 µM [rising, partial curve]"
S=C(Nc1ccc(Br)cc1)NC1CCCCC1,,"35.5 µM [rising, single point]"
CC(C)c1ccc(NC(=O)c2snc3ccc(Cl)cc23)cc1,,"10 µM [rising, partial curve]"
CN(Cc1ccccc1)S(=O)(=O)c1ccc(NC(=S)NC(=O)C2CCCC2)cc1,"8.91 µM [falling, partial curve]","10 µM [falling, partial curve]"
CC(C)NC(=O)NC(=O)COC(=O)Cc1c(F)cccc1Cl,"0.0794 µM [falling, full curve, poor fit]","0.0224 µM [falling, full curve, poor fit]"
COc1cccc(Nc2ncc3ncc(=O)n(CCc4ccccc4)c3n2)c1,,"14.1 µM [falling, partial curve]"
Cc1ccc(C)c(-n2nnnc2Sc2nnnn2-c2ccccc2)c1,"28.2 µM [falling, single point]","35.5 µM [falling, single point]"
O=C(c1cccc(S(=O)(=O)Nc2ccccc2F)c1)N1CCN(c2ccccc2F)CC1,"7.94 µM [falling, full curve, poor fit]","7.08 µM [falling, full curve, poor fit]"
CCN(CC)c1ccc(NC(=O)C2=CCN(S(=O)(=O)c3ccc(F)cc3)CC2)c(C)c1,,"14.1 µM [rising, single point]"
Cc1nn(CCCC(=O)Nc2cc(Oc3ccccc3)cc([N+](=O)[O-])c2)c(C)c1[N+](=O)[O-],"35.5 µM [rising, single point]",
CC1CCCCC1NC(=O)/C(C#N)=C/c1ccccc1F (stereo not given),,"25.1 µM [rising, single point]"
COc1cc(/C=C/C(=O)OC(C)C(=O)Nc2c(C)n(C)n(-c3ccccc3)c2=O)ccc1OCC#N (stereo not given),"10 µM [falling, partial curve, poor fit]","7.08 µM [falling, full curve]"
C/C(N)=C(/C#N)C(=O)CSc1nnc(SCc2ccc(Cl)cc2)s1,"31.6 µM [rising, single point]","31.6 µM [rising, single point]"

# Look-ups from above.
# `CN(Cc1ccccc1)S(=O)(=O)c1ccc(NC(=S)NC(=O)C2CCCC2)cc1` | AC50 [1]: 8.91 µM [falling, partial curve]
# `CC(C)c1ccc(NC(=O)c2snc3ccc(Cl)cc23)cc1` | AC50 [2]: 10 µM [rising, partial curve]
# `COc1cc(/C=C/C(=O)OC(C)C(=O)Nc2c(C)n(C)n(-c3ccccc3)c2=O)ccc1OCC#N` (stereo not given) | AC50 [1]: 10 µM [falling, partial curve, poor fit]
# `Cc1c(C(=O)c2no[n+]([O-])c2C(=O)c2cnn(C)c2C)cnn1C` | AC50 [2]: 15.8 µM [falling, single point]

# (further entries)

Compound,AC50 [1],AC50 [2]
COc1ccc2[nH]cc(CCNc3nc(-c4ccc(C(=O)N(C)C)cc4)nc4ccccc34)c2c1,"10 µM [falling, partial curve]","11.2 µM [falling, partial curve]"
CN(C)[C@H]1C(=O)C(C(=O)NCN2CCCC2)=C(O)[C@]2(O)C(=O)C3=C(O)c4c(O)cccc4[C@](C)(O)[C@H]3C[C@H]12,"0.0355 µM [rising, full curve, poor fit]",
Cc1nc2ccccc2nc(C)c1=NOCc1ccc(Cl)cc1Cl,"35.5 µM [rising, single point]","25.1 µM [rising, partial curve]"
O=C(OCC1CC(c2ccccc2)=NO1)c1ccc(Br)cc1 (stereo not given),,"0.00891 µM [rising, full curve, poor fit]"
C/C(CCC(=O)OC[C@H]1O[C@H](C#Cc2ccccc2)C=C[C@@H]1Oc1ccc(C)cc1)=N\OC[C@@H](O)[C@H]1O[C@@H]2OC(C)(C)O[C@@H]2[C@H]1O,"10 µM [rising, partial curve, poor fit]","12.6 µM [rising, partial curve]"
O=C(NCC(=O)N(Cc1ccc(F)cc1)C(C(=O)NC1CCCC1)c1ccco1)c1ccco1 (stereo not given),"31.6 µM [rising, single point]",
COc1cccc(C2c3c(oc4ccc(Cl)cc4c3=O)C(=O)N2c2cc(C)on2)c1OC (stereo not given),"2 µM [rising, partial curve, poor fit]",
CC(=O)N(C)c1ccc(NC(=O)COc2ccc(Br)cc2C)cc1,"10 µM [rising, partial curve]","15.8 µM [rising, single point]"
C=C(C)CNC(=S)N=Nc1c(O)[nH]c2ccc([N+](=O)[O-])cc12,"28.2 µM [rising, single point]",
CC(NC(=O)CCCC1=NS(=O)(=O)c2ccccc2N1)c1ccccc1 (stereo not given),"20 µM [rising, partial curve, poor fit]",
c1ccc(-c2csc(N3CCN(c4ccccn4)CC3)n2)cc1,"15.8 µM [rising, partial curve, poor fit]","35.5 µM [rising, single point]"
CCN(CC)c1nc2c3c(nc4c(c3c1C#N)CC(=O)N4c1ccc(Cl)cc1)NC(C)=N2,,"17.8 µM [rising, partial curve]"
O=C(N/N=C\c1c(O)ccc2ccccc12)c1ccc(Cn2cccn2)o1,"8.91 µM [rising, partial curve]","10 µM [rising, partial curve]"
O=C(/C=C/c1c(F)cccc1Cl)Nc1nn[nH]n1,"0.00501 µM [rising, full curve]",
COCCCNC(=S)N/N=C/c1ccccc1O,"0.158 µM [falling, full curve]",
O=C(CCc1nc(-c2cccs2)no1)Nc1ccccc1[N+](=O)[O-],,"0.00447 µM [falling, full curve, poor fit]"
CC(C)Oc1ccc2c(=O)cc(-c3ccccc3)oc2c1,"10 µM [falling, single point]",
CCOC(=O)N1CCc2[nH]c3ccc(C)cc3c2C1,,"0.316 µM [rising, full curve, poor fit]"
Cc1ccc2nc(NC(=O)CSc3nccn3Cc3ccc(Cl)cc3)sc2c1,,"0.0891 µM [falling, full curve]"
O=C(N/N=C/c1sc(=O)n(-c2ccccc2)c1Cl)c1ccncc1,"12.6 µM [falling, partial curve]","15.8 µM [falling, partial curve, poor fit]"
CCc1cccc(C)c1NC(=O)c1cc(S(=O)(=O)N2CCOCC2)cn1C,,"35.5 µM [rising, single point]"
O=C(NCc1ccc(C(F)(F)F)cc1)C1CC(c2c(Cl)cccc2Cl)=NO1 (stereo not given),"17.8 µM [rising, single point]",
CCn1nnc(-c2ccccc2NS(=O)(=O)c2ccc(S(=O)(=O)N3CCCCCC3)cc2)n1,"0.0355 µM [rising, full curve, poor fit]","31.6 µM [rising, single point]"
COC(=O)c1ccccc1NC(=S)NC(C)=O,,"0.0562 µM [falling, full curve, poor fit]"
O=C(NC(=S)Nc1ccc(Oc2ccccc2)cc1)c1ccc(Cl)cc1,,"17.8 µM [rising, single point]"
Cc1cc(OCCn2cnc3ccccc3c2=O)cc(C(C)C)c1,"14.1 µM [rising, single point]","22.4 µM [rising, single point]"
